Data source: PubChem BioAssay AID1259308 (NCATS, 2017)
Here is a random part of about 59,000 reagents tested. Over the whole deposit, about 1,510 (2.6%) were called active. 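Calls use total luciferase alone and ignore viability, so some active siRNAs may act by altering cell number.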 The numbers tell different reagents against one gene apart. Not all columns of the deposit are shown.

Aim: 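Candidate targets for better recombinant protein yield in mammalian cells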 (primary screen)
Cell system: human HEK293 embryonic kidney cells stably expressing firefly luciferase (HEK-CMV-Luc2-Hygro)
Reagents: single siRNA against human genes, 0.8 pmol siRNA per well
Duration: 72 h
Measurement: 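Reporter luminescence and viable-cell signal on separate replicate plates, given as percent of non-targeting control and median/MAD z-scores, plus per-cell luciferase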
Direction: total luciferase, z-score and total luciferase, % of control: higher = more reporter protein produced
Call rule: 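An siRNA counts as active if its total luciferase robust z-score exceeds 3; genes with two or more such siRNAs out of three were retested with fresh siRNAs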
Meaning of the calls: active = raised luciferase; inactive = no rise

no.	target gene	siRNA no.	total luciferase, z-score	total luciferase, % of control	Call
1	CEP15	1	0.618	94.2	inactive
2	CEP15	2	0.911	100	inactive
3	CEP15	3	-0.156	78.8	inactive
4	ARPP19	1	-0.136	79.2	inactive
5	ARPP19	2	-0.212	77.7	inactive
6	ARPP19	3	1.6	114	inactive
7	TADA2B	1	-0.638	69.2	inactive
8	TADA2B	2	0.244	86.7	inactive
9	TADA2B	3	-0.0568	80.8	inactive
10	MMP25	1	0.062	83.1	inactive
11	MMP25	2	-3.2	18.3	inactive
12	MMP25	3	-0.632	69.3	inactive
13	SMPD4	1	-0.0361	81.2	inactive
14	SMPD4	2	2.89	139	inactive
15	SMPD4	3	-0.668	68.6	inactive
16	RNF6	1	-1.55	51	inactive
17	RNF6	2	0.873	99.3	inactive
18	RNF6	3	0.737	96.5	inactive
19	CCDC144NL	1	-1.01	61.8	inactive
20	CCDC144NL	2	0.737	96.6	inactive
21	CCDC144NL	3	0.164	85.2	inactive
22	IRAK4	1	-0.795	66.1	inactive
23	IRAK4	2	0.991	102	inactive
24	IRAK4	3	0.253	86.9	inactive
25	EEA1	1	-0.0107	81.7	inactive
26	EEA1	2	0.205	86	inactive
27	EEA1	3	-0.221	77.5	inactive
28	BACH1	1	0.518	92.2	inactive
29	BACH1	2	-0.702	67.9	inactive
30	BACH1	3	-0.171	78.5	inactive
31	TMEM242	1	-0.79	66.2	inactive
32	TMEM242	2	0.144	84.8	inactive
33	TMEM242	3	-0.35	74.9	inactive
34	CXCL14	1	-0.248	76.9	inactive
35	CXCL14	2	-0.393	74.1	inactive
36	CXCL14	3	1.66	115	inactive
37	GXYLT1	1	0.863	99.1	inactive
38	GXYLT1	2	-0.233	77.3	inactive
39	GXYLT1	3	-0.862	64.7	inactive
40	FAM162B	1	-2.15	39.1	inactive
41	FAM162B	2	0.0335	82.6	inactive
42	FAM162B	3	-1.38	54.4	inactive
43	CRYGB	1	0.58	93.4	inactive
44	CRYGB	2	-1.2	58	inactive
45	CRYGB	3	0.639	94.6	inactive
46	SOHLH2	1	-0.549	71	inactive
47	SOHLH2	2	0.614	94.1	inactive
48	SOHLH2	3	-0.211	77.7	inactive
49	KIAA1143	1	-0.335	75.2	inactive
50	KIAA1143	2	-0.111	79.7	inactive
51	KIAA1143	3	-0.161	78.7	inactive
52	TSPAN2	1	0.272	87.3	inactive
53	TSPAN2	2	-0.304	75.8	inactive
54	TSPAN2	3	-0.808	65.8	inactive
55	IL17C	1	0.0013	81.9	inactive
56	IL17C	2	-0.449	73	inactive
57	IL17C	3	1.62	114	inactive

9 neighbouring entries from above, quoted:
no.	target gene	siRNA no.	total luciferase, z-score	total luciferase, % of control	Call
14	SMPD4	2	2.89	139	inactive
15	SMPD4	3	-0.668	68.6	inactive
16	RNF6	1	-1.55	51	inactive
17	RNF6	2	0.873	99.3	inactive
18	RNF6	3	0.737	96.5	inactive
19	CCDC144NL	1	-1.01	61.8	inactive
20	CCDC144NL	2	0.737	96.6	inactive
21	CCDC144NL	3	0.164	85.2	inactive
22	IRAK4	1	-0.795	66.1	inactive
